# Reference: the supplement of paper PMC11006884
# Chains of the proteins cited; added tags and fusions are not shown. Lines headed by an entry give the natural chain unless they say otherwise; changes in a name come on top.
# UniProt P53618: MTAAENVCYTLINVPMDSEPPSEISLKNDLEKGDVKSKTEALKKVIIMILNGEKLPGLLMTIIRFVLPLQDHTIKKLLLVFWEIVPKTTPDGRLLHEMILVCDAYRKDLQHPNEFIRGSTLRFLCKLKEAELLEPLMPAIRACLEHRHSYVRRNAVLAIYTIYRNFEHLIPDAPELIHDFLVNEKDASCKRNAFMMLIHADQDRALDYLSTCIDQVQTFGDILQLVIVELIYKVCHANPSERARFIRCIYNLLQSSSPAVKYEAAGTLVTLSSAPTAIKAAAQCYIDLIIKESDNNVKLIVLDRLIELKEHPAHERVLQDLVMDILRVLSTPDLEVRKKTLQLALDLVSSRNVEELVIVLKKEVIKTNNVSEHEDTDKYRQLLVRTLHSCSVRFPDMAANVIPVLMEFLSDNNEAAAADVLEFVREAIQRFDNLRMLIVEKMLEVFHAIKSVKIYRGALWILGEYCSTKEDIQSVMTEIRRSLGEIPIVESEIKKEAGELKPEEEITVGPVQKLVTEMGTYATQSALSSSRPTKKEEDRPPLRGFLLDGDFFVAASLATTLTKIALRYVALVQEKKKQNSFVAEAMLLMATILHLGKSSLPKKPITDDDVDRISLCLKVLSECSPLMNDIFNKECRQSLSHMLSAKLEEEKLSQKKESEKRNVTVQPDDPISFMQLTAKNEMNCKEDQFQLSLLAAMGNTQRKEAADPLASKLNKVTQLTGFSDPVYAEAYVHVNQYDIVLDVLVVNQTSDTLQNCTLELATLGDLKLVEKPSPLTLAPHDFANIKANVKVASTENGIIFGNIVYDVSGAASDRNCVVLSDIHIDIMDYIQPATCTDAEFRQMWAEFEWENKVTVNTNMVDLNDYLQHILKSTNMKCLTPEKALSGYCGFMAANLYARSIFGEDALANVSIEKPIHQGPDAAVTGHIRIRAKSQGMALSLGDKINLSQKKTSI
# UniProt P52789: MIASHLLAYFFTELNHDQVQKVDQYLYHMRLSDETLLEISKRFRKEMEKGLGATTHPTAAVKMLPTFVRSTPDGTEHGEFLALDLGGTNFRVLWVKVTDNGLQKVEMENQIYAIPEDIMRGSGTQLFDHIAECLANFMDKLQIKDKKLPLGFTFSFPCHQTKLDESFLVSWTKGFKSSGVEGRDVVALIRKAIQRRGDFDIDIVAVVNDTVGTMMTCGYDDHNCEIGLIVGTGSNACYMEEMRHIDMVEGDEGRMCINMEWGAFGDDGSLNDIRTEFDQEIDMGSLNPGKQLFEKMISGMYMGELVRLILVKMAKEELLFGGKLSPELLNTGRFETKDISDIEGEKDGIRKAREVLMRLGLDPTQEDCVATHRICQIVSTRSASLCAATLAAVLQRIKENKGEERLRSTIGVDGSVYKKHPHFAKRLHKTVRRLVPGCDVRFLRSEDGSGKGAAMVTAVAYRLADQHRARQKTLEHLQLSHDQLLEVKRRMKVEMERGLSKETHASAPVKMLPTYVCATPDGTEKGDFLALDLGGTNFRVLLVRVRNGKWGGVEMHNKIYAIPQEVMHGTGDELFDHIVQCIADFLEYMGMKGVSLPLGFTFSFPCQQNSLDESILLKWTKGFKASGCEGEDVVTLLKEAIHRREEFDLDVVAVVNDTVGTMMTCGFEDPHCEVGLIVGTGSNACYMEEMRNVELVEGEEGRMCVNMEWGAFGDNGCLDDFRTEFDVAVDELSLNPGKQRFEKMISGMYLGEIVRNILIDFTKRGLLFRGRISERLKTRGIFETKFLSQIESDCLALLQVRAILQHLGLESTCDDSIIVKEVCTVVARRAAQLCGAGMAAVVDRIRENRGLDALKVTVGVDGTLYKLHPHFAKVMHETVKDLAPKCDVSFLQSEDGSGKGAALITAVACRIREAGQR
# UniProt P55884, whole entry, looked up: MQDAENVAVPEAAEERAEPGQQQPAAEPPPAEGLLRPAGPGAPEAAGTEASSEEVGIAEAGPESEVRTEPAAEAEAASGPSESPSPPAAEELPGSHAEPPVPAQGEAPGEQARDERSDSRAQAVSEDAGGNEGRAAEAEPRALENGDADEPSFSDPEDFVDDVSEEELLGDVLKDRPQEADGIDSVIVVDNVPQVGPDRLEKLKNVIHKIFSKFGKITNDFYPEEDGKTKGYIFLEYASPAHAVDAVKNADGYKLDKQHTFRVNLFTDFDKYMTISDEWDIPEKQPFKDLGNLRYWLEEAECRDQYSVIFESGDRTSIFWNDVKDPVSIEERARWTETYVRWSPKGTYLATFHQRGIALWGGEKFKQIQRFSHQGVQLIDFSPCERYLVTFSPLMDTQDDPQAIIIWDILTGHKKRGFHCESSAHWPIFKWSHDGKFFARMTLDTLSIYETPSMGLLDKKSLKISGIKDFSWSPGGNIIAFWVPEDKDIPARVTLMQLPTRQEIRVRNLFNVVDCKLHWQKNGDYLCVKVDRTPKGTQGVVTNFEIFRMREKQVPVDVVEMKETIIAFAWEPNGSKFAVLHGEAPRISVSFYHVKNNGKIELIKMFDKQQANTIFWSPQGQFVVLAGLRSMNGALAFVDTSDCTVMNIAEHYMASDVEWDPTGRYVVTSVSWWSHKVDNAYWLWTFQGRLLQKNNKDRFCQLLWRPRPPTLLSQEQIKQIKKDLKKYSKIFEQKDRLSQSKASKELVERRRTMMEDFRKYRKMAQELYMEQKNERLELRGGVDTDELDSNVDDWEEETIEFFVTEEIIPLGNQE
# UniProt P54278: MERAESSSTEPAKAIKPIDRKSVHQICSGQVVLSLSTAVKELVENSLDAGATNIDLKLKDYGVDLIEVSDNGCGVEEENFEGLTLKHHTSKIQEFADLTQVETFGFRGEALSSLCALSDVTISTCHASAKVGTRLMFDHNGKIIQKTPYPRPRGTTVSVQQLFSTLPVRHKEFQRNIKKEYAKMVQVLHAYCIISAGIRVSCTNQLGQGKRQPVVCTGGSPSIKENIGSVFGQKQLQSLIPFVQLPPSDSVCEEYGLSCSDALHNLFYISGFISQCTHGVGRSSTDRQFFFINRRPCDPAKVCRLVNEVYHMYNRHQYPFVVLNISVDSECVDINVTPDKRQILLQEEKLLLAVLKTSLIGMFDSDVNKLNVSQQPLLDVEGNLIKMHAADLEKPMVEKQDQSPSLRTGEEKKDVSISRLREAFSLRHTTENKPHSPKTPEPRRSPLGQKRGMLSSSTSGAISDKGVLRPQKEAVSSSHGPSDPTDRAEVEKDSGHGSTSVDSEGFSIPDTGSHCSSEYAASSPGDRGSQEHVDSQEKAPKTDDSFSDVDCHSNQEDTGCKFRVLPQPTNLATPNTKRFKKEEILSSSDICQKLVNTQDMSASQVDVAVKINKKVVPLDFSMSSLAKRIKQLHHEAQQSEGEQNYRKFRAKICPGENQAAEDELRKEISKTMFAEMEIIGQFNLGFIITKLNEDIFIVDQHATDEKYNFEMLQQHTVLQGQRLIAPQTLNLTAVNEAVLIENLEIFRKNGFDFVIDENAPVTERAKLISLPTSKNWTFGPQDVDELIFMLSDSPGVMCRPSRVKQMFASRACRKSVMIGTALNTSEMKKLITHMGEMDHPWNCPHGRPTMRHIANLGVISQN
# UniProt P55060: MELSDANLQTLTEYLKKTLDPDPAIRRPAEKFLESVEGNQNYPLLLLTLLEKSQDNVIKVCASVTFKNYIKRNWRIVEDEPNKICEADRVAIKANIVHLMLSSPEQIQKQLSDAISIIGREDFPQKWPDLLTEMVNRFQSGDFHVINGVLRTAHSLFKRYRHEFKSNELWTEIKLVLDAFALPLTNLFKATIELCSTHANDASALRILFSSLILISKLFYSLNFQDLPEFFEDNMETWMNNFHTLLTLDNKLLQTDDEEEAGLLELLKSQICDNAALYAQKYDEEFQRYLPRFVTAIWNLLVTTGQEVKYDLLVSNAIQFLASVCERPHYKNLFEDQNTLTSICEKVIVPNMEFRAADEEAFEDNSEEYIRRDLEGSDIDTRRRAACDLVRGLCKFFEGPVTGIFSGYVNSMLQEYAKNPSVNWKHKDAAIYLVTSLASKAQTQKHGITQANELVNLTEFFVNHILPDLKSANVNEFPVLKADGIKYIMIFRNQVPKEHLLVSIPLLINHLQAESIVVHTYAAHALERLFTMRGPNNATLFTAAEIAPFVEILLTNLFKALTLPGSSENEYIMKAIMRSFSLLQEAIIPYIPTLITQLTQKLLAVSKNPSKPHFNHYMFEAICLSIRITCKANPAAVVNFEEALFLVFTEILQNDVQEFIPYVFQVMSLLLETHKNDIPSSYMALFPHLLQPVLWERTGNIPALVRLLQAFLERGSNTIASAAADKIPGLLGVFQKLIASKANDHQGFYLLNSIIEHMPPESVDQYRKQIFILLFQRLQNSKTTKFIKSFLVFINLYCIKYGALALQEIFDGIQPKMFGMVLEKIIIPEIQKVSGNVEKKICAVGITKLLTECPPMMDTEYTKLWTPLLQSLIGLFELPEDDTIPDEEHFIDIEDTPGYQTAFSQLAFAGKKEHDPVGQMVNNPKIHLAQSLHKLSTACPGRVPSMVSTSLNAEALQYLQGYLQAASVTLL
# UniProt P52701: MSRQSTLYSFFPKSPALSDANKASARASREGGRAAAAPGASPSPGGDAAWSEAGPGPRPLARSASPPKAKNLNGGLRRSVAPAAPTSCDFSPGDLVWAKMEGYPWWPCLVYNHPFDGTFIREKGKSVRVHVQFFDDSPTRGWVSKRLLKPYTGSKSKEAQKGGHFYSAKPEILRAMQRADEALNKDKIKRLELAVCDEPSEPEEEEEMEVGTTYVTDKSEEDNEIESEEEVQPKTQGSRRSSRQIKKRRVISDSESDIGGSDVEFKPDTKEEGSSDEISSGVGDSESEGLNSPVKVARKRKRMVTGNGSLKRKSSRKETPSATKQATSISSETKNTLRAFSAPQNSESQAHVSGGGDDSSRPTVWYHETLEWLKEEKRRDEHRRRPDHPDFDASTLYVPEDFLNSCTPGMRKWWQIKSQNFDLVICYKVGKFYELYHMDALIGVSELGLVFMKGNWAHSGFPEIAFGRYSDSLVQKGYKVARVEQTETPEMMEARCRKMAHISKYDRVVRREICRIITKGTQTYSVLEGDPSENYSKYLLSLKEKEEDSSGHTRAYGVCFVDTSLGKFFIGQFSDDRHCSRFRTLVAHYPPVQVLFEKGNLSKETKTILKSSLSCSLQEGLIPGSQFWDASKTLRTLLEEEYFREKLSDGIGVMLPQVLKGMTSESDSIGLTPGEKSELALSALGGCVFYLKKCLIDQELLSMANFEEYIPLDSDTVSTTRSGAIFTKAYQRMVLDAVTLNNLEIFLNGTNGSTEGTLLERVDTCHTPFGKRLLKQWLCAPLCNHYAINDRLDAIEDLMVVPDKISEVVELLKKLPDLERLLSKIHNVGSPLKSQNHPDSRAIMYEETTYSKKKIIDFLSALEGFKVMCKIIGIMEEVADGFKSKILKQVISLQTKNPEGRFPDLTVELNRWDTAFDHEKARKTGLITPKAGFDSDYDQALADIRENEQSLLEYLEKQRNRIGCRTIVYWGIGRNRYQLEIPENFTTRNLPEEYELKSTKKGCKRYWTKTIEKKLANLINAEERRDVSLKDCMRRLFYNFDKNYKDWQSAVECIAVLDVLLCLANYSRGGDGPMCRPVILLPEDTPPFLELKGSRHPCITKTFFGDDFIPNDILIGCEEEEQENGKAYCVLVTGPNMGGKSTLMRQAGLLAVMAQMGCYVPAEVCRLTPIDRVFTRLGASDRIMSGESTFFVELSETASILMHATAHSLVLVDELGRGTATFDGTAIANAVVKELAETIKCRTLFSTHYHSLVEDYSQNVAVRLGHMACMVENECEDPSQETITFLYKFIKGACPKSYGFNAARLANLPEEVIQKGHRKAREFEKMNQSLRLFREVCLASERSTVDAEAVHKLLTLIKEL
# UniProt P60842, whole entry, looked up: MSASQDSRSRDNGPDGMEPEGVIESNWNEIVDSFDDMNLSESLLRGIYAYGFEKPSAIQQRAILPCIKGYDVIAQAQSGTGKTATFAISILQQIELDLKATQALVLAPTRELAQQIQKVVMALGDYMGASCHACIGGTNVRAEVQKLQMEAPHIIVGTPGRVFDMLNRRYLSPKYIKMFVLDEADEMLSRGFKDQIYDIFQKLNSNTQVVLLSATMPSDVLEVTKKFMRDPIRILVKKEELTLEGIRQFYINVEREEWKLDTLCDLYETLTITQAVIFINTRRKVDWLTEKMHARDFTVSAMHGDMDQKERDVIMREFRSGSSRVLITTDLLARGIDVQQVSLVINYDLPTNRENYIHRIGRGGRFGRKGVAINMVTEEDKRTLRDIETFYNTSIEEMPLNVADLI
# UniProt P51970, whole entry: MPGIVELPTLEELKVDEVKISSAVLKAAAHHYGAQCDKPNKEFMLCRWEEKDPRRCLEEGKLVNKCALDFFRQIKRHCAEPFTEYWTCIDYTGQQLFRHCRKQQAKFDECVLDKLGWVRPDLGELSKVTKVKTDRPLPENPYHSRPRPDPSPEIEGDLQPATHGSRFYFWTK
# Only a part is listed here, and it is no random draw.
# Compound: COC(=O)C#Cc1ccccc1 [methyl 3-phenylpropiolate]
# Assay: log2 ratio of iodoacetamide-alkyne labeling of the cysteine site, DMSO over compound (competition); higher = stronger covalent engagement of the cysteine by the compound, active = 1 or more
# Conditions: 500 µM; treatment time 1 h; system: HEK293T cell lysate
# Outline: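 HEK293T lysate (2 mg/mL) was treated with DMSO or electrophile (500 µM, 1 h, ambient temperature), then iodoacetamide alkyne (1 h), clicked to sCIP-TMT reagents, pooled, trypsin-digested overnight at 37 °C, streptavidin-enriched and acid-eluted. Peptides were run on Orbitrap Eclipse LC-MS/MS with FAIMS and quantified in FragPipe. The log2 competition ratio per cysteine is mean control-channel over mean compound-channel reporter intensity. Duplicate channels and three replicates were used, and cysteines quantified in only one replicate were excluded.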
row,Target,log2 ratio of iodoacetamide-alkyne labeling
1,PSMD4 C9 (UniProt P55036),inactive: -0.106
2,NUP98 C1068 (UniProt P52948),inactive: 0.537
3,COPB1 C284 (UniProt P53618),inactive: 0.137
4,CTBP2 C60 (UniProt P56545),inactive: 0.0719
5,HK2 C794 (UniProt P52789),inactive: 0.311
6,EIF3B C700 (UniProt P55884),inactive: 0.436
7,MARS C287 (UniProt P56192),inactive: -0.00466
8,UniProt P55196_C960,inactive: 0.273
9,NCBP2 C81 (UniProt P52298),inactive: 0.0517
10,RPS3A C111 (UniProt P61247),inactive: 0.563
11,ELL C494 (UniProt P55199),inactive: 0.872
12,PSMD4 C58 (UniProt P55036),inactive: -0.00877
13,COPB1 C888 (UniProt P53618),inactive: 0.31
14,PMS2 C798 (UniProt P54278),inactive: -0.143
15,HCCS C178 (UniProt P53701),inactive: 0.0323
16,CSE1L C842 (UniProt P55060),inactive: 0.747
17,MSH6 C694 (UniProt P52701),inactive: -0.35
18,KIF11 C450 (UniProt P52732),inactive: 0.0207
19,TPI1 C104 (UniProt P60174),inactive: 0.0793

row,Target,log2 ratio of iodoacetamide-alkyne labeling
1,COPB1 C684 (UniProt P53618),inactive: 0.337
2,MSH6 C1337 (UniProt P52701),inactive: 0.14
3,UniProt P60842_C66,inactive: -0.0149
4,SEC13 C245 (UniProt P55735),inactive: -0.125
5,UniProt P60228_C298,inactive: -0.641
6,EIF3B C384 (UniProt P55884),inactive: 0.187
7,UniProt P55072_C572,inactive: -0.137
8,PMS2 C216 (UniProt P54278),inactive: 0.722
9,SEC24C C433 (UniProt P53992),active: 1.1
10,BLM C361 (UniProt P54132),inactive: 0.519
11,HK2 C158 (UniProt P52789),inactive: 0.246
12,UniProt P60891_C230,inactive: 0.704
13,CSE1L C85 (UniProt P55060),inactive: 0.0448
14,DGKE C135 (UniProt P52429),inactive: 0.156
15,NDUFA8 C110 (UniProt P51970),active: 1.12
16,ADAR C519 (UniProt P55265),inactive: 0.129
17,MSH6 C108 (UniProt P52701),inactive: 0.0472
18,CSE1L C344 (UniProt P55060),inactive: 0.483

# Ten entries from above, as tab-separated lines:
row	Target	log2 ratio of iodoacetamide-alkyne labeling
16	CSE1L C842 (UniProt P55060)	inactive: 0.747
17	MSH6 C694 (UniProt P52701)	inactive: -0.35
18	KIF11 C450 (UniProt P52732)	inactive: 0.0207
19	TPI1 C104 (UniProt P60174)	inactive: 0.0793
1	COPB1 C684 (UniProt P53618)	inactive: 0.337
2	MSH6 C1337 (UniProt P52701)	inactive: 0.14
3	UniProt P60842_C66	inactive: -0.0149
4	SEC13 C245 (UniProt P55735)	inactive: -0.125
5	UniProt P60228_C298	inactive: -0.641
6	EIF3B C384 (UniProt P55884)	inactive: 0.187
